Measurements reported in PubChem BioAssay AID1224830 (NIAID, 2016)
Here is a random part of about 18,000 deposited reagents. Of all reagents, about 2,900 (16%) got an active call. 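Calls are made per well; low scores hint the gene aids the LPS response, high scores that it dampens it.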 Repeated entries: four replicate wells of each siRNA pool.

Purpose: 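Regulators of TLR4 signalling towards TNF-alpha in macrophage-like cells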 (primary screen)
Cell system: human THP-1 monocytic leukaemia cells, TNF dual-luciferase reporter clone, PMA-differentiated to macrophage-like cells
Reagents: siRNA pool against human genes, 50 nM
Timing: LPS for 4 h, given about 3 days after siRNA transfection
Conditions: bacterial LPS (TLR4 ligand), 10 ng/ml
Measurement: 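TNF firefly reporter luminescence divided by renilla, normalised to the plate median, then turned into a robust z-score for each replicate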
Reading the numbers: TNF reporter robust z-score: higher = stronger TNF reporter response to LPS
Rule for the call: 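Each well counts as active if its z-score is over 2.8 or under -1.5; controls are left without a call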

| Gene | TNF reporter robust z-score | outcome |
| --- | --- | --- |
| DNAJB8 | -0.65 | inactive |
| DNAJB8 | 0.15 | inactive |
| DNAJB8 | -0.1 | inactive |
| ACE | -1.15 | inactive |
| ACE | -1.26 | inactive |
| ACE | -1.09 | inactive |
| ACE | -1.16 | inactive |
| CAGE1 | -0.77 | inactive |
| CAGE1 | -0.87 | inactive |
| CAGE1 | -0.57 | inactive |
| CAGE1 | 0.28 | inactive |
| GAR1 | 0.25 | inactive |
| GAR1 | -0.24 | inactive |
| GAR1 | 0.09 | inactive |
| GAR1 | 1.62 | inactive |
| TMEM204 | 1.38 | inactive |
| TMEM204 | 1.15 | inactive |
| TMEM204 | 1.74 | inactive |
| TMEM204 | 1.21 | inactive |
| NUDT17 | -1.31 | inactive |
| NUDT17 | -1.71 | active |
| NUDT17 | -1.62 | active |
| NUDT17 | 0.03 | inactive |
| CD248 | 1.85 | inactive |
| CD248 | 1.9 | inactive |
| CD248 | -0.88 | inactive |
| CD248 | -0.13 | inactive |
| SCD5 | 2.78 | inactive |
| SCD5 | 0.53 | inactive |
| SCD5 | -0.84 | inactive |
| SCD5 | -1.18 | inactive |
| SOX30 | 1.31 | inactive |
| SOX30 | 1.73 | inactive |
| SOX30 | 1.44 | inactive |
| LINC02872 | 0.33 | inactive |
| LINC02872 | 0.69 | inactive |
| LINC02872 | 1.59 | inactive |
| LINC02872 | 1.03 | inactive |
| CRYBA2 | 1.1 | inactive |
| CRYBA2 | 1.97 | inactive |
| CRYBA2 | 0.61 | inactive |
| CRYBA2 | 2.1 | inactive |
| BDNF | -0.37 | inactive |
| BDNF | 0.22 | inactive |
| BDNF | 0.72 | inactive |
| BDNF | 1.92 | inactive |
| ZNF781 | 1.27 | inactive |
| ZNF781 | 0.63 | inactive |
| ZNF781 | 0.82 | inactive |
| ZNF781 | 0.75 | inactive |
| CYP2U1 | 0.39 | inactive |
| CYP2U1 | 0.5 | inactive |
| CYP2U1 | 0.53 | inactive |
| CYP2U1 | -0.64 | inactive |
| RNASEH2C | -0.51 | inactive |
| RNASEH2C | 0.51 | inactive |
| RNASEH2C | -0.98 | inactive |
| RNASEH2C | 1.21 | inactive |
| CCDC30 | 1.57 | inactive |
| CCDC30 | 1.06 | inactive |
| CCDC30 | -0.34 | inactive |
| CCDC30 | 0.73 | inactive |
| WBP2NL | -0.76 | inactive |
| WBP2NL | -0.04 | inactive |
| WBP2NL | 0.16 | inactive |
| WBP2NL | -0.61 | inactive |
| RPS17P16 | 0.38 | inactive |
| RPS17P16 | 0.34 | inactive |
| RPS17P16 | 0.52 | inactive |
| RPS17P16 | 0.2 | inactive |
| CDC73 | 0.39 | inactive |
| CDC73 | 1.05 | inactive |
| CDC73 | 0.07 | inactive |
| CDC73 | 0.35 | inactive |
| PRNT | -1.55 | active |
| PRNT | -0.1 | inactive |
| PRNT | -0.7 | inactive |
| PRNT | -1.04 | inactive |

13 entries already listed, ordered by “TNF reporter robust z-score”, high to low.
| Gene | TNF reporter robust z-score | outcome |
| --- | --- | --- |
| CCDC30 | 1.57 | inactive |
| RNASEH2C | 1.21 | inactive |
| CCDC30 | 1.06 | inactive |
| CCDC30 | 0.73 | inactive |
| CYP2U1 | 0.53 | inactive |
| RNASEH2C | 0.51 | inactive |
| CYP2U1 | 0.5 | inactive |
| WBP2NL | -0.04 | inactive |
| CCDC30 | -0.34 | inactive |
| RNASEH2C | -0.51 | inactive |
| CYP2U1 | -0.64 | inactive |
| WBP2NL | -0.76 | inactive |
| RNASEH2C | -0.98 | inactive |
